The other results are listed elsewhere or left out. Further columns of the screen follow, without active or inactive calls. The list favours compounds with an active or inconclusive main result. Potencies come from curve fits of mixed quality, noted in brackets.
Assay: qHTS Assay for Identifying the Cell-Membrane Permeable IMPase Inhibitors
Details: CHO-M1 cells, IP1 accumulation, HTRF TR-FRET ratio; measured here: donor channel 620 nm AC50

SMILES | AC50
CCN1C(=O)c2ccccc2S(=O)(=O)c2ccc(C(=O)NCc3cccnc3)cc21 | 5620 nM [rising, single point]
CCCCCCCCCCCNC(=O)c1ccoc1C | 6310 nM [falling, single point]
O=CNNC(=O)c1cccc([N+](=O)[O-])c1 | 4.47 nM [rising, full curve, poor fit]
O=C(O)[C@H]1CCCC[C@H]1C(=O)Nc1ccc(Nc2ccccc2)cc1 | 1000 nM [falling, full curve]
O=C(OC1CCCCC1=O)c1cc(=O)c2ccccc2o1 (configuration not stated) | 3160 nM [falling, single point]
Cc1ccc(-c2csc3nnc(SCC(=O)N4CCN(Cc5ccccc5)CC4)n23)cc1 | 3160 nM [falling, single point]
Cc1nc2c(c(=O)n1CCC1=CCCCC1)c1nc3ccccc3nc1n2/N=C/c1ccco1 | 5.01 nM [falling, full curve, poor fit]
O=C(CSc1ccc(-c2cccs2)nn1)NCc1ccccc1Cl | 11200 nM [rising, single point]
CC1(C)CC(=O)c2cnc(NC(=O)CCc3ccccc3)nc2C1 | 4470 nM [falling, full curve, poor fit]
COc1cc(NC(=O)c2ccccc2)cc(OC)c1 | 31600 nM [falling, single point]
CCOC(=O)c1ccc(NCc2nc3ccccc3n2C)cc1 | 3980 nM [rising, full curve]
O=C(NCc1ccco1)c1ccc(C(=O)NCc2ccco2)s1 | 126 nM [falling, full curve, poor fit]
O=C(CO)N/N=C/c1ccccc1F | 10000 nM [falling, partial curve, poor fit]
CCOC(=O)c1c(C)n(-c2ccc(OC)cc2)c2ccc(OC(=O)COc3ccccc3)cc12 | 10000 nM [falling, partial curve, poor fit]
COc1ccc(CCN2C(=O)C(O)=C(C(=O)c3ccco3)C2c2cccs2)cc1OC (configuration not stated) | 12600 nM [rising, partial curve]
CCCC(=O)Nc1c(C(=O)OCC)[nH]c2ccccc12 | 1120 nM [falling, partial curve, poor fit]
CC(=NCCN1CCNCC1)C1=C(O)CC(C)(C)CC1=O | 3980 nM [rising, partial curve]
CC(C)n1c(SCC(=O)Nc2ccc3c(c2)OCO3)nc2c1c(=O)n(C)c(=O)n2C | 158 nM [rising, full curve, poor fit]
CC(=O)Nc1ccc(S(=O)(=O)N2CCN(C(=O)c3ccccc3F)CC2)cc1 | 1410 nM [falling, partial curve]
CS(=O)(=O)N1CCC(c2noc(-c3ccc(C(F)(F)F)cc3)n2)CC1 | 11200 nM [rising, single point]
CCOc1ccc(NC(=O)CN(C)CC(=O)Nc2ccccc2C#N)cc1OCC | 1000 nM [rising, full curve]

As entered above.
`O=C(CO)N/N=C/c1ccccc1F` | AC50: 10000 nM [falling, partial curve, poor fit]
`CC(C)n1c(SCC(=O)Nc2ccc3c(c2)OCO3)nc2c1c(=O)n(C)c(=O)n2C` | AC50: 158 nM [rising, full curve, poor fit]

Next part:

SMILES | AC50
O=C(CCc1nc(-c2ccccc2F)no1)NCCN1CCOCC1 | 3980 nM [falling, single point]
Nn1c(SCC(=O)NC2CCCCC2)nnc1-c1ccc(Cl)cc1 | 15.8 nM [falling, partial curve]
COC(=O)c1ccc(CSc2nnc(NC(=O)c3cc4c(s3)CCCC4)s2)cc1 | 251 nM [falling, full curve]
COc1ccc(OC)c(NC(=O)CC(NCCC2=CCCCC2)C(=O)O)c1 (configuration not stated) | 158 nM [falling, full curve, poor fit]
COc1ccc(-n2c(=O)cc(N3CCN(c4ccccc4)CC3)[nH]c2=O)cc1 | 5.01 nM [falling, full curve, poor fit]
O=C(CSc1nnc(CNC(=O)c2ccco2)o1)NC1CCCC1 | 100 nM [falling, full curve, poor fit]
COc1ccc(Cl)cc1S(=O)(=O)Nc1ccc2[nH]c(=O)[nH]c2c1 | 3550 nM [falling, single point]
CCc1nn(C(C)C(=O)NC(C)CCc2ccco2)c(=O)c2cc3occc3n12 (configuration not stated) | 10000 nM [falling, partial curve]
Cc1ccc(Cl)cc1N1CCN(C(=O)CCS(=O)(=O)c2cc(Br)cc3c2N(C(=O)C2CC2)CC3)CC1 | 28.2 nM [falling, full curve]
CCc1nnc(NC(=O)CSc2nnc(Cc3ccccc3)n2-c2ccc(OC)cc2)s1 | 158 nM [rising, full curve, poor fit]
O=C(Cn1c(CN2CCCCC2)nc2ccccc2c1=O)NC1CCCCC1 | 2000 nM [falling, full curve, poor fit]
CC(C)N(Cc1nc(-c2ccccc2)no1)C(=O)CN(C)S(=O)(=O)c1ccc(Br)cc1 | 1580 nM [falling, partial curve]
CCOC(=O)N1CCN(C(=O)c2cc(S(=O)(=O)N3CCCC3)cn2C)CC1 | 63.1 nM [falling, full curve, poor fit]
Cc1noc(C)c1S(=O)(=O)NCCCN1CCN(Cc2ccccc2)CC1 | 79.4 nM [falling, full curve, poor fit]
CC(C)COP(=O)(OCC(C)C)C(O)c1ccc(F)cc1 (configuration not stated) | 447 nM [falling, partial curve]
COc1cccc(CNC(=O)C(=O)NCC2CCCO2)c1 (configuration not stated) | 794 nM [falling, full curve]
Cc1nc(C)c(C(=O)C2=C(O)C(=O)N(CCN(C)C)C2c2cccs2)s1 (configuration not stated) | 631 nM [rising, single point]
CCCc1ccc(-c2cc(NC(=O)CSc3nnc(N)s3)n(-c3ccccc3)n2)cc1 | 31.6 nM [falling, full curve, poor fit]
CCOc1cc(CNCc2cccs2)cc(Br)c1OC | 10000 nM [rising, single point]
O=C(NCc1ccco1)c1ccc(Cn2cc([N+](=O)[O-])cn2)o1 | 316 nM [falling, full curve, poor fit]
N#Cc1ccc(CSc2nnc(-c3ccccc3)n2Cc2ccco2)cc1 | 1000 nM [falling, full curve, poor fit]

From PubChem BioAssay AID901 (National Center for Advancing Translational Sciences (NCATS), 2007)
